Results: publication doi:10.1101/2020.10.07.329979

T1: Fibrillin 2 (FBN2), endogenous (Arabidopsis thaliana (endogenous in Arabidopsis leaves)) (UniProt O82291)
T1 sequence: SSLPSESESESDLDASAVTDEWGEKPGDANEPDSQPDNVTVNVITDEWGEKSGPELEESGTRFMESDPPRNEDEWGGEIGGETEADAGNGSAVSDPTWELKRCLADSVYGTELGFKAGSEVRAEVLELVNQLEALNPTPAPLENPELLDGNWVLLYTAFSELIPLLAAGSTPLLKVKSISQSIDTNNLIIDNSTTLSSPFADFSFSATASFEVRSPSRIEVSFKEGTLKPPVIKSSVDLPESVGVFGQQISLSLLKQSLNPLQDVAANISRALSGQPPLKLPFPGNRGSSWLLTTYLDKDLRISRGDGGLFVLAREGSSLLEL


Biological target: T1, Fibrillin 2 (FBN2), endogenous (Arabidopsis thaliana (endogenous in Arabidopsis leaves))
Test: affinity purification with mass spectrometry

Row | binding | Molecule
1 | binds | Acclimation of Photosynthesis to Environment 1 (APE1), endogenous

Biological target: T1, Fibrillin 2 (FBN2), endogenous (Arabidopsis thaliana (endogenous in Arabidopsis leaves))
Test: affinity purification with mass spectrometry
Remark: another data set of the same source

Row | Molecule | binding
2 | allene oxide synthase (AOS), endogenous (enzyme, UniProt Q96242 34-518) SGSETPDLTVATRTGSKDLPIRNIPGNYGLPIVGPIKDRWDYFYDQGAEEFFKSRIRKYNSTVYRVNMPPGAFIAENPQVVALLDGKSFPVLFDVDKVEKKDLFTGTYMPSTELTGGYRILSYLDPSEPKHEKLKNLLFFLLKSSRNRIFPEFQATYSELFDSLEKELSLKGKADFGGSSDGTAFNFLARAFYGTNPADTKLKADAPGLITKWVLFNLHPLLSIGLPRVIEEPLIHTFSLPPALVKSDYQRLYEFFLESAGEILVEADKLGISREEATHNLLFATCFNTWGGMKILFPNMVKRIGRAGHQVHNRLAEEIRSVIKSNGGELTMGAIEKMELTKSVVYECLRFEPPVTAQYGRAKKDLVIESHDAAFKVKAGEMLYGYQPLATRDPKIFDRADEFVPERFVGEEGEKLLRHVLWSNGPETETPTVGNKQCAGKDFVVLVARLFVIEIFRRYDSFDIEVGTSPLGSSVNFSSLRKASF | binds
3 | NAD(P)H dehydrogenase C1, endogenous (enzyme, UniProt Q8GXR9 53-519) AVTNNSGTTEISDNETAPRTYSWPDNKRPRVCILGGGFGGLYTALRLESLVWPEDKKPQVVLVDQSERFVFKPMLYELLSGEVDVWEIAPRFSDLLTNTGIQFLRDRVKTLLPCDHLGVNGSEISVTGGTVLLESGFKIEYDWLVLALGAESKLDVVPGAMELAFPFYTLEDAIRVNEKLSKLERKNFKDGSAIKVAVVGCGYAGVELAATISERLQDRGIVQSINVSKNILTSAPDGNREAAMKVLTSRKVQLLLGYLVQSIKRASNLEEDEGYFLELQPAERGLESQIIEADIVLWTVGAKPLLTKLEPSGPNVLPLNARGQAETDETLRVKGHPRIFALGDSSSLRDSNGKILPTTAQVAFQEADFTGWNIWAAINNRPLLPFRFQNLGEMMTLGRYDAAISPSFIEGLTLEGPIGHAARKLAYLIRLPTDEHRFKVGISWFAKSAVDSIALLQSNLTKVLSGS | binds
4 | Lipoxygenase 2 (LOX2), endogenous (enzyme, UniProt P38418 57-896) ANIEQEGNTVKEPIQNIKVKGYITAQEEFLEGITWSRGLDDIADIRGRSLLVELISAKTDQRITVEDYAQRVWAEAPDEKYECEFEMPEDFGPVGAIKIQNQYHRQLFLKGVELKLPGGSITFTCESWVAPKSVDPTKRIFFSDKSYLPSQTPEPLKKYRKEELETLQGKNREEVGEFTKFERIYDYDVYNDVGDPDNDPELARPVIGGLTHPYPRRCKTGRKPCETDPSSEQRYGGEFYVPRDEEFSTAKGTSFTGKAVLAALPSIFPQIESVLLSPQEPFPHFKAIQNLFEEGIQLPKDAGLLPLLPRIIKALGEAQDDILQFDAPVLINRDRFSWLRDDEFARQTLAGLNPYSIQLVEEWPLISKLDPAVYGDPTSLITWEIVEREVKGNMTVDEALKNKRLFVLDYHDLLLPYVNKVRELNNTTLYASRTLFFLSDDSTLRPVAIELTCPPNINKPQWKQVFTPGYDATSCWLWNLAKTHAISHDAGYHQLISHWLRTHACTEPYIIAANRQLSAMHPIYRLLHPHFRYTMEINARARQSLVNGGGIIETCFWPGKYALELSSAVYGKLWRFDQEGLPADLIKRGLAEEDKTAEHGVRLTIPDYPFANDGLILWDAIKEWVTDYVKHYYPDEELITSDEELQGWWSEVRNIGHGDKKDEPWWPVLKTQDDLIGVVTTIAWVTSGHHAAVNFGQYGYGGYFPNRPTTTRIRMPTEDPTDEALKEFYESPEKVLLKTYPSQKQATLVMVTLDLLSTHSPDEEYIGEQQEASWANEPVINAAFERFKGKLQYLEGVIDERNVNITLKNRAGAGVVKYELLKPTSEHGVTGMGVPYSISI | binds
5 | isoform 2 of the ferredoxin-NADP[H] oxidoreductase (FNR2), endogenous (enzyme, UniProt Q8W493 58-369) ITTETDTPTPAKKVEKVSKKNEEGVIVNRYRPKEPYTGKCLLNTKITADDAPGETWHMVFSHQGEIPYREGQSVGVIADGIDKNGKPHKVRLYSIASSALGDLGNSETVSLCVKRLVYTNDQGETVKGVCSNFLCDLAPGSDVKLTGPVGKEMLMPKDPNATVIMLATGTGIAPFRSFLWKMFFEKHDDYKFNGLAWLFLGVPTTSSLLYQEEFDKMKAKAPENFRVDYAISREQANDKGEKMYIQTRMAQYAAELWELLKKDNTFVYMCGLKGMEKGIDDIMVSLAANDGIDWFDYKKQLKKAEQWNVEVY | binds

Next, values leading:

Row | binding | Molecule
6 | binds | Fibrillin 1a (FBN1a), endogenous (protein, UniProt O81439 56-318) ATDIDDEWGQDGVERVFASSSTVSVADKAIESVEETERLKRSLADSLYGTDRGLSVSSDTRAEISELITQLESKNPTPAPNEALFLLNGKWILAYTSFVGLFPLLSRRIEPLVKVDEISQTIDSDSFTVQNSVRFAGPFSTTSFSTNAKFEIRSPKRVQIKFEQGVIGTPQLTDSIEIPESVEVLGQKIDLNPIKGLLTSVQDTASSVARTISNQPPLKFSLPSDNTQSWLLTTYLDKDLRISRGDGGSVYVLIKEGSSLLNP
7 | binds | fructose bisphosphate aldolase (FBA) isoform 1, endogenous (enzyme, UniProt Q9SJU4 49-399) ASAYADELVKTAKTIASPGHGIMAMDESNATCGKRLASIGLENTEANRQAYRTLLVSAPGLGQYISGAILFEETLYQSTTDGKKMVDVLVEQNIVPGIKVDKGLVPLVGSYDESWCQGLDGLASRTAAYYQQGARFAKWRTVVSIPNGPSALAVKEAAWGLARYAAISQDSGLVPIVEPEIMLDGEHGIDRTYDVAEKVWAEVFFYLAQNNVMFEGILLKPSMVTPGAEATDRATPEQVASYTLKLLRNRIPPAVPGIMFLSGGQSELEATLNLNAMNQAPNPWHVSFSYARALQNTCLKTWGGKEENVKAAQDILLARAKANSLAQLGKYTGEGESEEAKEGMFVKGYTY
8 | binds | Tic62, endogenous (protein, UniProt Q8H0U5 64-641) ASSVVTEASPTNLNSKEEDLVFVAGATGKVGSRTVRELLKLGFRVRAGVRSAQRAGSLVQSVKEMKLQNTDEGTQPVEKLEIVECDLEKKDSIQPALGNASVIICCIGASEKEISDITGPYRIDYLATKNLVDAATSAKVNNFILVTSLGTNKFGFPAAILNLFWGVLCWKRKAEEALIESGLNYAIVRPGGMERPTDAYKETHNLTLALDDTLFGGQVSNLQVAELLACMAKNPQLSFSKIVEVVAETTAPLTPIEKLLEKIPSKRPYVPPPKASVATKEVKPVPTKPVTQEPTAPKEDEAPPKEKNVKPRPLSPYASYEDLKPPTSPIPNSTTSVSPAKSKEVDATQVPVEANVVPVPDSTSNVPVVEVKQVEEKKERPLSPYARYENLKPPSSPSPTASSTRKSDSLSPGPTDSDTDKSSTVAKTVTETAVATSVTETSVATSVPETAVATSVTETAAPATSKMRPLSPYAIYADLKPPTSPTPASTGPKEAASVEDNSELPGGNNDVLKTVDGNLNTIPPSTPEAVPVVSSAIDTSLASGDNTAQPKPRPLSPYTMYADMKPPTSPLPSPVTNH
9 | binds | fructose bisphosphate aldolase (FBA) isoform 2, endogenous (enzyme, UniProt Q944G9 47-398) AASSYADELVKTAKTIASPGRGILAMDESNATCGKRLDSIGLENTEANRQAFRTLLVSAPGLGQYVSGAILFEETLYQSTTEGKKMVDVLVEQNIVPGIKVDKGLVPLVGSNNESWCQGLDGLSSRTAAYYQQGARFAKWRTVVSIPNGPSALAVKEAAWGLARYAAISQDSGLVPIVEPEILLDGEHDIDRTYDVAEKVWAEVFFYLAQNNVMFEGILLKPSMVTPGAESKDRATPEQVAAYTLKLLRNRVPPAVPGIMFLSGGQSEVEATLNLNAMNQAPNPWHVSFSYARALQNTCLKTWGGRPENVNAAQTTLLARAKANSLAQLGKYTGEGESEEAKEGMFVKGYTY

Results are given in words; binding and its absence hold for the method and conditions named. In cells and extracts the contact can be indirect. Here binding means that the protein was enriched with, or labelled near, the bait; the list need not be complete.
